# According to the supplement of paper PMC10849652:
# By UniProt entry, the sequences of proteins in these tests, tags left out. Where a name states a change or a piece, a line headed by the entry shows the natural chain unless it says otherwise.
# UniProt P48454, whole entry, looked up: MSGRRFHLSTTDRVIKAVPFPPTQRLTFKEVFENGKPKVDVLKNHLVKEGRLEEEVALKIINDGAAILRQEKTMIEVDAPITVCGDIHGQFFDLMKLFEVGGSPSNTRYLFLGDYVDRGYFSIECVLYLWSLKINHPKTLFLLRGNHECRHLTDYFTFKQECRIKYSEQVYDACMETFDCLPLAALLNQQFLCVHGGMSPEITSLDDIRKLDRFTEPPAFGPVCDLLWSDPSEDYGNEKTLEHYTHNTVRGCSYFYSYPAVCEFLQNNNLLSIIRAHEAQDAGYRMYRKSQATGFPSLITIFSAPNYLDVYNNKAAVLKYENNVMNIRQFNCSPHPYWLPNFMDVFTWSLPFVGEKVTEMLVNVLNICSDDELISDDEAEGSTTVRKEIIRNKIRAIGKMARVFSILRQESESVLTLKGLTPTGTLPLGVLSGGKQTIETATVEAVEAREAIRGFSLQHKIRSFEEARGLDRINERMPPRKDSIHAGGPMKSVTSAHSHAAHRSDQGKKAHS
# UniProt Q86WR7: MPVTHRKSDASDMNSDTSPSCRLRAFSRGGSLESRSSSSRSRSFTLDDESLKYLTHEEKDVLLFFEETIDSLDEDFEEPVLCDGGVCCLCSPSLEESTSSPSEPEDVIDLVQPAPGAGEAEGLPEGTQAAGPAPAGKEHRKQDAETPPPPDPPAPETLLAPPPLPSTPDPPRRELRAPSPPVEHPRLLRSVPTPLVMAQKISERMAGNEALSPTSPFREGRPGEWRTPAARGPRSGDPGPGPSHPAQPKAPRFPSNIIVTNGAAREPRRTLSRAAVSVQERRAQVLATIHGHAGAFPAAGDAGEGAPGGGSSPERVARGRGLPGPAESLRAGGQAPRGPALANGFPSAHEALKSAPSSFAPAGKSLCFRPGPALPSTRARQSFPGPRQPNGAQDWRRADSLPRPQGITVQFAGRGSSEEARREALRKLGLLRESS
# UniProt P05771, whole entry, looked up: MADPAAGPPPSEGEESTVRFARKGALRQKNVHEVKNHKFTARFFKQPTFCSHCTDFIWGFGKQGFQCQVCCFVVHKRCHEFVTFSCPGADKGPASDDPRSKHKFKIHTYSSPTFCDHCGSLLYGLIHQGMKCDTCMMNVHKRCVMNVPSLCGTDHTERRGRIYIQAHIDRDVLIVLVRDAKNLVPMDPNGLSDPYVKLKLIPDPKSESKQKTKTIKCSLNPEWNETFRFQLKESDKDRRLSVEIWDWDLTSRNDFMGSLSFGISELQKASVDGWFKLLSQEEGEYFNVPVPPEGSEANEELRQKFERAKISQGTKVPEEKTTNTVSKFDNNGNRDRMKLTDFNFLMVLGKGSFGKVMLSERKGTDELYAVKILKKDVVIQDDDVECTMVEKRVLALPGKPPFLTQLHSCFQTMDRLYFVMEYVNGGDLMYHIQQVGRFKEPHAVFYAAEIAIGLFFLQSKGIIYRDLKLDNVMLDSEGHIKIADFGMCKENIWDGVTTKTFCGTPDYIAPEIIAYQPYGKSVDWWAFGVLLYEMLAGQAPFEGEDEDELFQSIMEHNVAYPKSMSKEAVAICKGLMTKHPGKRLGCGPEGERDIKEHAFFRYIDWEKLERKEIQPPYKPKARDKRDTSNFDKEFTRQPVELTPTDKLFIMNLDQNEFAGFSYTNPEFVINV
# UniProt P35813: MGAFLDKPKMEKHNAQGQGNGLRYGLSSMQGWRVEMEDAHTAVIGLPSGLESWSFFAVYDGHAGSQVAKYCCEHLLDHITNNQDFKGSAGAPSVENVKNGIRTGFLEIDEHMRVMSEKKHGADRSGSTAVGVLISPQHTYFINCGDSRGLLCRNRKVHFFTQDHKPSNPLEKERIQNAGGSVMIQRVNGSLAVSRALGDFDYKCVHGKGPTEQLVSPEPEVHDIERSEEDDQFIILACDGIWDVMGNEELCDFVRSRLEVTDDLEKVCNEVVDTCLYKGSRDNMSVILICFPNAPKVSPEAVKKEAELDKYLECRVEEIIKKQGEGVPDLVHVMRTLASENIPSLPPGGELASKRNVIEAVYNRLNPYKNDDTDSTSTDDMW
# UniProt O43314: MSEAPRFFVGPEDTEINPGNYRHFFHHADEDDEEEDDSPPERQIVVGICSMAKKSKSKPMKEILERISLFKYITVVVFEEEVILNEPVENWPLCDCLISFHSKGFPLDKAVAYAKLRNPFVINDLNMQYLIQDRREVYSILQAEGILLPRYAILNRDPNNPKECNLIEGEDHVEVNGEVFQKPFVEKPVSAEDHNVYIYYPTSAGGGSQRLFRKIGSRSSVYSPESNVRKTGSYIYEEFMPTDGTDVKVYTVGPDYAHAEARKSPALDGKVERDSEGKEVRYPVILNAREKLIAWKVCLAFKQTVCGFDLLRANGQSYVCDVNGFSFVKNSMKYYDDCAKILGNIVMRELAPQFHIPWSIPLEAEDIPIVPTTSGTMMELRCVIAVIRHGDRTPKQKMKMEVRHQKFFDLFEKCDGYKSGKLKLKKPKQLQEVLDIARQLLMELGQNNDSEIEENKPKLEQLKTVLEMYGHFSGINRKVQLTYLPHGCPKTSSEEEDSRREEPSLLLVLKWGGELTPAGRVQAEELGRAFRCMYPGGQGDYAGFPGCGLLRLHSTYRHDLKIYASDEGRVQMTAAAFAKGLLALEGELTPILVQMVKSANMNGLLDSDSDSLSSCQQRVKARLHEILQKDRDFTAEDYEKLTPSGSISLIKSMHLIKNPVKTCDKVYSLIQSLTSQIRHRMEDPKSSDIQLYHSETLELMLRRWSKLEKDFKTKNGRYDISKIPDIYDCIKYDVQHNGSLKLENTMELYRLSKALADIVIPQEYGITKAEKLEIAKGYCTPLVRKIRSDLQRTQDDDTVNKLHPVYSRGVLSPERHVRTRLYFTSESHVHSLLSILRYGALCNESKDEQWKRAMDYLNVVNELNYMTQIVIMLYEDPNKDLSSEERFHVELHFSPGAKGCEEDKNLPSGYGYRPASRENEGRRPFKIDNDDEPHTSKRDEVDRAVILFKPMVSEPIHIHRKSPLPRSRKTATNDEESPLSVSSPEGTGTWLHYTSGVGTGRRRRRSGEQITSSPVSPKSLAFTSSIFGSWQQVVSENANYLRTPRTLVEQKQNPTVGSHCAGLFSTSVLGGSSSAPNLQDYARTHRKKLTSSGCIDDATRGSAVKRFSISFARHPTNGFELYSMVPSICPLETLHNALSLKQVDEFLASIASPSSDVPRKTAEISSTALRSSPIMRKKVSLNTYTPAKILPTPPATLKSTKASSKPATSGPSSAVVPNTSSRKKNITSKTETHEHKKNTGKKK
# UniProt Q8NAV1: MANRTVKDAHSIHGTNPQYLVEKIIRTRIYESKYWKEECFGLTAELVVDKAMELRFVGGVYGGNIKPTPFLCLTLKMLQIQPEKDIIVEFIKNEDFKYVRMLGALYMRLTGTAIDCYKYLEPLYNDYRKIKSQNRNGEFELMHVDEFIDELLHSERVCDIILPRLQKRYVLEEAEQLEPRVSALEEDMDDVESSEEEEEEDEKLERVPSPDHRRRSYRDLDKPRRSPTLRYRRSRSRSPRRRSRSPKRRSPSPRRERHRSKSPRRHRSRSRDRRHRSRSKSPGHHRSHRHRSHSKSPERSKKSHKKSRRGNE
# UniProt P36873, whole entry, looked up: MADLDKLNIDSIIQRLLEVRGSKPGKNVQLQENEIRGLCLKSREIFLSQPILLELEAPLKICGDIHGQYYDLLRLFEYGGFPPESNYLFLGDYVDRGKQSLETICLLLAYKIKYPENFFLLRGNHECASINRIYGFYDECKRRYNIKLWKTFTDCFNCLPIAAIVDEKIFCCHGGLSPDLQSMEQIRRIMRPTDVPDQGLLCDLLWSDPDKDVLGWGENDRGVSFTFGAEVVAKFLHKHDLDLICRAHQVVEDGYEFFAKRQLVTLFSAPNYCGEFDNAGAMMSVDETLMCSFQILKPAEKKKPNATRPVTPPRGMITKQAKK
# UniProt O60237: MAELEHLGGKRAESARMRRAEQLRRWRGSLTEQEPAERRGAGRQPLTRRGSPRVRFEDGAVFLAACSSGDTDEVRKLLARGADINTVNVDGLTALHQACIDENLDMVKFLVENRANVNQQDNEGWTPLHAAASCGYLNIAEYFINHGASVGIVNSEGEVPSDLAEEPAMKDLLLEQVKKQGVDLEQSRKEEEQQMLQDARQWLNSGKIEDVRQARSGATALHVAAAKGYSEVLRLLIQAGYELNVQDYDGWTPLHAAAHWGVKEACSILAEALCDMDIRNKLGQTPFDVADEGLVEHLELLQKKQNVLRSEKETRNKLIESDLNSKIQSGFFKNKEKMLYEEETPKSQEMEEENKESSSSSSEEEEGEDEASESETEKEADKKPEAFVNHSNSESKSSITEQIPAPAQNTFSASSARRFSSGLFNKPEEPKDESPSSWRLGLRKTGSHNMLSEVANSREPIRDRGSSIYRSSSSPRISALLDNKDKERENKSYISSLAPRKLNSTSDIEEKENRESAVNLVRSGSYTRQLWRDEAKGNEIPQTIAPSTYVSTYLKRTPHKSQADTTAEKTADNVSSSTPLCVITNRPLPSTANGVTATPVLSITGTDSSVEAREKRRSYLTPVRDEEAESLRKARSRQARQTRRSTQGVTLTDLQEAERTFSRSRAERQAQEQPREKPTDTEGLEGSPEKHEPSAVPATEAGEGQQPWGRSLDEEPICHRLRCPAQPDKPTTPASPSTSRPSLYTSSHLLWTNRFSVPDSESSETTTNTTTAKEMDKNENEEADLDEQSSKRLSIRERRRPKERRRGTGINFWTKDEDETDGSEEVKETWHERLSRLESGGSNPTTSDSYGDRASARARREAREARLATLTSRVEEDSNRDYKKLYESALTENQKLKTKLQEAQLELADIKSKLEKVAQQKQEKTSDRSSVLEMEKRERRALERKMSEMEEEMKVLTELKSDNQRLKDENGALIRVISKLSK
# UniProt O60828: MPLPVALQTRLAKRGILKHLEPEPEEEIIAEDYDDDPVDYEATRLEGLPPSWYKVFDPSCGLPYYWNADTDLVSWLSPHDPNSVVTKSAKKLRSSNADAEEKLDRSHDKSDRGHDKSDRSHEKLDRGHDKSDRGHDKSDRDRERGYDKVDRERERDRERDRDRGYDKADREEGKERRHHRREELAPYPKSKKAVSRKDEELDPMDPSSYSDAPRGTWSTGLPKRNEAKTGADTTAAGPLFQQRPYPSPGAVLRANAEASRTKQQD
# UniProt Q9BZL4: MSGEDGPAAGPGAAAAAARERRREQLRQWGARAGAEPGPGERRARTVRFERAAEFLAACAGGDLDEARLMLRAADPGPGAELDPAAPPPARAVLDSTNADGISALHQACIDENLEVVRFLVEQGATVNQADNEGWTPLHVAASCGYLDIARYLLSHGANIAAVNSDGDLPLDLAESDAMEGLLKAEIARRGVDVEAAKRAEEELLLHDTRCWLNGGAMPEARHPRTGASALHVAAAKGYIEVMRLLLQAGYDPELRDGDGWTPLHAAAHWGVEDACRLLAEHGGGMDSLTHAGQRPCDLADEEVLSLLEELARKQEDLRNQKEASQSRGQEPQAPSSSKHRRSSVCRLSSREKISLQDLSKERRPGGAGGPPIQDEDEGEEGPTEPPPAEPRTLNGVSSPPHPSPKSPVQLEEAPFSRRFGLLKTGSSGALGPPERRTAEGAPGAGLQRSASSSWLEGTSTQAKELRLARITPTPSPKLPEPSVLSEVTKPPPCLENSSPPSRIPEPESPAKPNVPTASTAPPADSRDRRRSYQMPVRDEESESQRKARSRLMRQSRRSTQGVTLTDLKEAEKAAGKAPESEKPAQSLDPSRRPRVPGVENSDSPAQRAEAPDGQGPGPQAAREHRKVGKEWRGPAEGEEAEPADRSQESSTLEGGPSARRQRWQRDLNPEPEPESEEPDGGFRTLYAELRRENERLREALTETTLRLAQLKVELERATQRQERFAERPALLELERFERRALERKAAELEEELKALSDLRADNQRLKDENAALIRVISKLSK
# UniProt P30405: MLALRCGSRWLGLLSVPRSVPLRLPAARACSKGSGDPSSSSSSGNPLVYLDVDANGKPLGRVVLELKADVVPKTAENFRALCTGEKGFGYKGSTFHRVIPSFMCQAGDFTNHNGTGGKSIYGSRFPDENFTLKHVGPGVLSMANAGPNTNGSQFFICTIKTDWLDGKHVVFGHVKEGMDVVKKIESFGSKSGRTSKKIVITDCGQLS
# UniProt Q96C90: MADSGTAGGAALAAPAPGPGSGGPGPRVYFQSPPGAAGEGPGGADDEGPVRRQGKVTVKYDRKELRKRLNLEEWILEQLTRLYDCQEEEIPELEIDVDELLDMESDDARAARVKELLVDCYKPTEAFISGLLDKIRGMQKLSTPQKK
# UniProt O43741: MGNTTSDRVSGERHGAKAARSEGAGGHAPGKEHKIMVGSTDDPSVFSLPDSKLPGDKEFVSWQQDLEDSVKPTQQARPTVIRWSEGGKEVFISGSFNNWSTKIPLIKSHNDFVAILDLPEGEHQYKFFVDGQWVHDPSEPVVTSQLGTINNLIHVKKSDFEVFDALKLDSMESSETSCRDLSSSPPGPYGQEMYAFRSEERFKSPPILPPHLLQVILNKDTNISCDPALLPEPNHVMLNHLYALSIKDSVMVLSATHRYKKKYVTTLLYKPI
# The list shows a part of the results.
# What was measured:
# Experiment in all cases: log2 fold change, soluble protein after heating vs DMSO (PISA); higher = thermal stabilisation; K562 lysate, 10 uM; active = over 0.2 and 3.5 SD of the protein, either way, in both replicates (recomputed)
# [1] = compound: CCCS(=O)(=O)Nc1ccc(F)c(C(=O)c2c[nH]c3ncc(-c4ccc(Cl)cc4)cc23)c1F [vemurafenib]
# How it was run: (§1)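 K562 pellets were dounce-homogenised in PBS pH 7.4 with 1 mM MgCl2, and the crude extract at 1 mg/mL protein was treated with 10 μM compound for 30 min. Aliquots were heated for 3 min across 48°C-58°C, pooled, and brought to 0.5% NP-40 at 4°C; soluble protein was the supernatant after 21,000xg for 90 min. Soluble protein was quantified by TMTpro 16plex LC-MS/MS with channel sums equalised, and reported as log2 fold change in thermal stability against DMSO controls, with values from duplicates.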
# [2] = compound: CCCS(=O)(=O)Nc1ccc(F)c(C(=O)c2c[nH]c3ncc(Cl)cc23)c1F
# How it was run: as §1
# [3] = compound: CCN(CCCOc1ccc2c(Nc3cc(CC(=O)Nc4cccc(F)c4)[nH]n3)ncnc2c1)CCOP(=O)(O)O [barasertib]
# How it was run: as §1
# [4] = compound: CC[C@@H]1C(=O)N(C)c2cnc(Nc3ccc(C(=O)NC4CCN(C)CC4)cc3OC)nc2N1C1CCCC1
# How it was run: as §1
# [5] = compound: CC[C@@H]1C(=O)N(C)c2cnc(Nc3ccc(C(=O)N[C@H]4CC[C@H](N5CCN(CC6CC6)CC5)CC4)cc3OC)nc2N1C(C)C [volasertib]
# How it was run: as §1
# [6] = compound: CCn1c(C(=O)N(C2CC2)C2CC2)cc2c3c(ncn3C)c(Nc3cc(C)n(C)n3)nc21
# How it was run: as §1
# [7] = compound: CCn1cc(-c2ccnc3[nH]c(-c4cccc(CN(C)C)c4)cc23)c(-c2ccc(NC(=O)N(C)C)cc2)n1
# How it was run: as §1
# [8] = compound: CN1CCC(CNc2ccc3ncc(-c4cccc(OC(F)(F)F)c4)n3n2)CC1
# How it was run: as §1
# [9] = compound: CN1CCN(CCOc2cc(OC3CCOCC3)c3c(Nc4c(Cl)ccc5c4OCO5)ncnc3c2)CC1 [saracatinib]
# How it was run: as §1
# [10] = compound: CN1CCN(c2nc(C3=C(c4c[nH]c5ccccc45)C(=O)NC3=O)c3ccccc3n2)CC1 [sotrastaurin]
# How it was run: as §1
Target,log2 fold change [1],log2 fold change [2],log2 fold change [3],log2 fold change [4],log2 fold change [5],log2 fold change [6],log2 fold change [7],log2 fold change [8],log2 fold change [9],log2 fold change [10]
PPP2R5A (UniProt Q15172),inactive: 0.04,inactive: 0.038,inactive: 0.021,inactive: -0.101,inactive: -0.072,inactive: 0.009,inactive: 0.103,inactive: -0.195,inactive: -0.025,inactive: 0.046
PPP3CC (UniProt P48454),inactive: 0.039,inactive: -0.011,inactive: 0.032,inactive: 0.032,inactive: 0,inactive: 0.053,inactive: -0.064,inactive: 0.034,inactive: 0.016,inactive: 0.045
PROSER2 (UniProt Q86WR7),inactive: 0.02,inactive: 0.055,inactive: 0.035,inactive: -0.017,inactive: 0.121,inactive: 0.005,inactive: -0.039,inactive: 0.02,inactive: 0.039,inactive: 0.033
PRPF38B (UniProt Q5VTL8),inactive: -0.021,inactive: 0.014,inactive: 0.018,inactive: -0.011,inactive: -0.013,inactive: -0.006,inactive: -0.078,inactive: 0.02,inactive: -0.002,inactive: -0.025
PRC1 (UniProt O43663),inactive: 0.048,inactive: 0.03,inactive: 0.063,inactive: -0.057,inactive: -0.028,inactive: 0,inactive: -0.004,inactive: -0.094,inactive: 0.025,inactive: 0.005
PRKCB isoform 2 (UniProt P05771),inactive: 0.045,inactive: -0.024,inactive: -0.017,inactive: -0.01,inactive: -0.062,inactive: 0.002,inactive: 0.073,inactive: -0.077,inactive: -0.023,active: 0.505
PPM1A isoform 3 (UniProt P35813),inactive: 0.022,inactive: 0.054,inactive: -0.031,inactive: 0.004,inactive: -0.025,inactive: 0.007,inactive: 0.024,inactive: 0.011,inactive: -0.006,inactive: 0.014
PRKAA1 isoform 2 (UniProt Q13131),inactive: -0.088,inactive: -0.002,inactive: -0.042,inactive: -0.07,inactive: -0.076,inactive: 0.028,inactive: 0.021,inactive: 0.108,inactive: -0.023,inactive: 0.07
PPIP5K2 (UniProt O43314),inactive: -0.012,inactive: 0.035,inactive: 0.019,inactive: -0.036,inactive: -0.023,inactive: -0.023,inactive: 0.094,inactive: -0.02,inactive: -0.007,inactive: 0.014
PPM1B (UniProt O75688),inactive: 0.015,inactive: 0.019,inactive: -0.001,inactive: -0.002,inactive: -0.017,inactive: -0.015,inactive: -0.109,inactive: 0.075,inactive: 0.005,inactive: 0.003
PRMT9 (UniProt Q6P2P2),inactive: -0.021,inactive: 0.028,inactive: 0.03,inactive: -0.041,inactive: -0.057,inactive: 0.033,inactive: -0.038,inactive: 0.05,inactive: 0,inactive: 0.053
PPP1R8 (UniProt Q12972),inactive: 0.049,inactive: -0.011,inactive: -0.032,inactive: 0.08,inactive: -0.007,inactive: -0.031,active: -0.28,inactive: 0.176,inactive: -0.038,inactive: 0.015
PRPF38A (UniProt Q8NAV1),inactive: -0.021,inactive: -0.011,inactive: -0.037,inactive: -0.029,inactive: -0.031,inactive: -0.055,active: -0.465,inactive: 0.046,inactive: 0.004,inactive: 0.191
PRKD3 (UniProt O94806),inactive: -0.148,inactive: -0.057,inactive: 0.161,inactive: -0.25,inactive: -0.06,inactive: -0.143,active: -0.876,inactive: 0.219,,inactive: 0.086
PPM1F (UniProt P49593),inactive: -0.008,inactive: -0.001,inactive: -0.024,inactive: -0.065,inactive: -0.041,inactive: 0.184,inactive: 0.033,inactive: -0.006,inactive: -0.013,inactive: 0.004
PPP1CC isoform 2 (UniProt P36873),inactive: 0.029,inactive: 0.024,inactive: -0.023,inactive: 0.017,inactive: -0.007,inactive: 0.01,inactive: 0.155,inactive: -0.015,inactive: -0.004,inactive: -0.013
PPP1R12B isoform 6 (UniProt O60237),inactive: 0.08,inactive: 0.036,inactive: -0.046,inactive: 0.133,inactive: -0.029,inactive: -0.209,,,inactive: -0.047,inactive: -0.057
PPIP5K2 (UniProt H0Y9S9),inactive: -0.054,inactive: -0.07,inactive: -0.136,inactive: -0.048,inactive: -0.313,inactive: 0.293,,,inactive: -0.101,
PQBP1 (UniProt O60828),inactive: 0.036,inactive: -0.006,inactive: -0.032,inactive: 0.106,inactive: 0.03,inactive: -0.063,inactive: -0.005,inactive: 0.079,inactive: 0,inactive: -0.02
PPOX (UniProt P50336),inactive: 0.058,inactive: 0.02,inactive: -0.093,inactive: -0.036,inactive: -0.007,inactive: -0.096,inactive: -0.075,inactive: -0.018,inactive: -0.044,inactive: -0.021
PPP2R5E (UniProt Q16537),inactive: 0.009,inactive: -0.011,inactive: -0.016,inactive: 0.013,inactive: -0.003,inactive: 0.001,inactive: -0.01,inactive: -0.074,inactive: 0.017,inactive: 0.029
PPP1R12C isoform 4 (UniProt Q9BZL4),inactive: 0.008,inactive: -0.022,inactive: -0.049,inactive: 0.046,inactive: 0.007,inactive: -0.007,inactive: -0.06,inactive: 0.054,inactive: 0.016,inactive: 0.075
PPIF (UniProt P30405),inactive: 0.006,inactive: -0.004,inactive: -0.028,inactive: 0.02,inactive: 0.029,inactive: -0.033,inactive: -0.187,inactive: 0.118,inactive: -0.011,inactive: 0
PPP2R5C isoform 5 (UniProt Q13362),inactive: -0.056,inactive: -0.013,inactive: -0.03,inactive: -0.063,inactive: 0.014,inactive: 0.058,inactive: 0.046,inactive: -0.08,inactive: 0,inactive: -0.011
PPP1R14B (UniProt Q96C90),inactive: 0.071,inactive: -0.02,inactive: 0.032,inactive: 0.055,inactive: 0.017,inactive: -0.088,inactive: 0.05,inactive: 0.017,inactive: 0.048,inactive: -0.046
PROSER1 (UniProt Q86XN7),inactive: 0.116,inactive: 0.086,inactive: 0.115,,inactive: -0.108,inactive: 0.206,inactive: 0.103,inactive: 0.136,inactive: -0.09,
PRKAB2 (UniProt O43741),inactive: 0.022,inactive: 0.104,inactive: -0.081,inactive: 0,inactive: -0.05,inactive: -0.094,active: -0.85,inactive: 0.303,inactive: 0.029,inactive: 0.026
PRKCI (UniProt P41743),inactive: -0.033,inactive: 0.079,inactive: -0.009,inactive: -0.018,inactive: -0.03,inactive: -0.029,inactive: -0.004,inactive: 0.003,inactive: -0.048,inactive: -0.041

# 2 neighbouring entries already listed:
Target,log2 fold change [1],log2 fold change [2],log2 fold change [3],log2 fold change [4],log2 fold change [5],log2 fold change [6],log2 fold change [7],log2 fold change [8],log2 fold change [9],log2 fold change [10]
PPP1R12C isoform 4 (UniProt Q9BZL4),inactive: 0.008,inactive: -0.022,inactive: -0.049,inactive: 0.046,inactive: 0.007,inactive: -0.007,inactive: -0.06,inactive: 0.054,inactive: 0.016,inactive: 0.075
PPIF (UniProt P30405),inactive: 0.006,inactive: -0.004,inactive: -0.028,inactive: 0.02,inactive: 0.029,inactive: -0.033,inactive: -0.187,inactive: 0.118,inactive: -0.011,inactive: 0
